Earlier results in patent US20050288227A1, “Use of thioredoxin measurements for diagnostics and treatments” (priority 2002, published 2005).

Test system: tumor growth
Conditions: animals; cited from earlier work

## O=C(CCCCCCC(=O)Nc1ccccc1)NO [SAHA, suberoylanilide hydroxamic acid]
  inhibition of tumor growth: effective at inhibiting tumor growth
